Drawing on the supplement of paper PMC6411743, this text covers NP40-soluble protein abundance for 1 compound.

Each structure is given as a SMILES string. ± gives the standard deviation of the averaged measurements. This is a selection; strong and weak results do not stand in their true shares.

The target in this assay is VKORC1 (UniProt Q9BQB6). Briefly: NP40-soluble protein abundance relative to vehicle (solubility fold change) (ratio); higher = more soluble protein in presence of AMP-PNP. In short, it runs like this:
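Jurkat crude lysate (Dounce-homogenised) was treated with eight concentrations from 0.1 to 10 mM for 10 min at room temperature, then 3 min at 37 °C. It was solubilised with 0.8% NP40 and benzonase (60 min, 4 °C) and ultracentrifuged, and the supernatant was TMT-labelled for LC-MS/MS. Intensities were vsn-normalised, and the value is the fold change against the NP40-processed vehicle per replicate, from three independent experiments.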

As to `Nc1ncnc2c1ncn2[C@@H]1O[C@H](COP(=O)(O)OP(=O)(O)NP(=O)(O)O)[C@@H](O)[C@H]1O` [adenylyl imidodiphosphate], the NP40-soluble protein abundance reads like this: (concentration: 1mM) 0.937 ± 0.034; (concentration: 2mM) 0.93 ± 0.02; (concentration: 4mM) 0.948 ± 0.019; (concentration: 6mM) 0.928 ± 0.042; (concentration: 8mM) 0.944 ± 0.024; (concentration: 10mM) 0.947 ± 0.016.
